Data as given in PMC8408166.

The chains behind the UniProt entries cited, without tags or fusion partners.
UniProt O14744: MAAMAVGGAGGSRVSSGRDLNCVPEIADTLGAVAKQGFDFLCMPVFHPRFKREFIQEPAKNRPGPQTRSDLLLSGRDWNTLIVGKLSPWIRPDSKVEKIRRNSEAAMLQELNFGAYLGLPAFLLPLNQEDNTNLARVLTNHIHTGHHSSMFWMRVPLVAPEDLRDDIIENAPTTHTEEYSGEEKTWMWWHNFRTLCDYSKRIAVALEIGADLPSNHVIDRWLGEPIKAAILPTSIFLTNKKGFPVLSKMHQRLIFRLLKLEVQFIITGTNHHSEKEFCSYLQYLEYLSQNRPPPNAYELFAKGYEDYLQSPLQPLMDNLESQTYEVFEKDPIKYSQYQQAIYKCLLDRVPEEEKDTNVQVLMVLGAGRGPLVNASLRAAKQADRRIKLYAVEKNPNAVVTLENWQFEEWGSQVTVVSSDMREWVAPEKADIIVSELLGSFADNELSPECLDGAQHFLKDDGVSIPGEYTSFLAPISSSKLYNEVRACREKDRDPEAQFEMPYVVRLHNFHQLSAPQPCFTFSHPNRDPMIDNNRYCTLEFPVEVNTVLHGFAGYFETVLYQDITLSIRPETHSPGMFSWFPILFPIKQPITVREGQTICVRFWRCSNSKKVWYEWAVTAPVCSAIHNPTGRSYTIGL
UniProt O95863: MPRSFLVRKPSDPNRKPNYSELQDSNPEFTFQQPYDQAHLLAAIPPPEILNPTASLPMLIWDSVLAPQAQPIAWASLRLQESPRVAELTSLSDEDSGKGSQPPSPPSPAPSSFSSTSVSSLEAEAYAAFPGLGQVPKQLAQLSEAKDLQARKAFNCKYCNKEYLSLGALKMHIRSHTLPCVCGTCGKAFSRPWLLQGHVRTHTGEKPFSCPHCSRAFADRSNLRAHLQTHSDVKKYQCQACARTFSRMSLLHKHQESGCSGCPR
UniProt Q13547: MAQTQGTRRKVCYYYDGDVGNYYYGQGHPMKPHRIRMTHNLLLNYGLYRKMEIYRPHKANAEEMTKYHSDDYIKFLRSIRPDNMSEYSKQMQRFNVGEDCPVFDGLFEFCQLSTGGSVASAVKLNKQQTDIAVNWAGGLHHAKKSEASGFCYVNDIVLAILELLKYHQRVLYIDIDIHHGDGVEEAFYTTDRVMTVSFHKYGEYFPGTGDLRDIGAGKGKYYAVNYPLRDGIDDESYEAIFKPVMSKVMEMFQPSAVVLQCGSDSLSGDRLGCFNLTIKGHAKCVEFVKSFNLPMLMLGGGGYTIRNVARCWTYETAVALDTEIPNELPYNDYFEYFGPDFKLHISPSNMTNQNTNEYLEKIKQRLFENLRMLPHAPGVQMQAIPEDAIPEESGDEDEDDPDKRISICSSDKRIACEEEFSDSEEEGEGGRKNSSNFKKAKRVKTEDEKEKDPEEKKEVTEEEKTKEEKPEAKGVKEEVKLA
UniProt Q8WXI9: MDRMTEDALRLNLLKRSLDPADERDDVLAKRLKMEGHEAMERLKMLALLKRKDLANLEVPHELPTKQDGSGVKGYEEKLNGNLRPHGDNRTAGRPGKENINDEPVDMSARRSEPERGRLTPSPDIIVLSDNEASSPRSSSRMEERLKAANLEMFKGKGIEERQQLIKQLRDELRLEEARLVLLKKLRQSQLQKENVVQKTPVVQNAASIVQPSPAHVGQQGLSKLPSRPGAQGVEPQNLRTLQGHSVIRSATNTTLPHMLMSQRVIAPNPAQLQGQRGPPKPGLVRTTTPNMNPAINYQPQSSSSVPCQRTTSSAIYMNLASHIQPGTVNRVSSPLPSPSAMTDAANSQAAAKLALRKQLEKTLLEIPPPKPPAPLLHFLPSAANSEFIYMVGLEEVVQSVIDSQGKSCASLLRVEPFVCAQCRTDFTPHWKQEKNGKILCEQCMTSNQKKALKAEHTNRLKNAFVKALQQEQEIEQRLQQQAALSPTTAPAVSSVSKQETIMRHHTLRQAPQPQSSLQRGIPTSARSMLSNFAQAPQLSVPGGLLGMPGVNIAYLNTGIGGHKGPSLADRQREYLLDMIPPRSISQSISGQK
UniProt Q09028: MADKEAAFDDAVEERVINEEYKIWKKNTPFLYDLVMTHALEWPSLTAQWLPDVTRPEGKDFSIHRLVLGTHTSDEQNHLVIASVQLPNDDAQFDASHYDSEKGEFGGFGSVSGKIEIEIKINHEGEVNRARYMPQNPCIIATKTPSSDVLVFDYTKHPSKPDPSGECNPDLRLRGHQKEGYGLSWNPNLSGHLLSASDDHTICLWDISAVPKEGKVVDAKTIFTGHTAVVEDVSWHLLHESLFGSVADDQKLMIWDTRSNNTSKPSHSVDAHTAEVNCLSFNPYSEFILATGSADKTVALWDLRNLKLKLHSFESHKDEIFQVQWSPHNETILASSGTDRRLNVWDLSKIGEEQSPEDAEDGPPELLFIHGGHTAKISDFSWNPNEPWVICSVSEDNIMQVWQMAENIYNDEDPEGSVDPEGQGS
UniProt Q16531: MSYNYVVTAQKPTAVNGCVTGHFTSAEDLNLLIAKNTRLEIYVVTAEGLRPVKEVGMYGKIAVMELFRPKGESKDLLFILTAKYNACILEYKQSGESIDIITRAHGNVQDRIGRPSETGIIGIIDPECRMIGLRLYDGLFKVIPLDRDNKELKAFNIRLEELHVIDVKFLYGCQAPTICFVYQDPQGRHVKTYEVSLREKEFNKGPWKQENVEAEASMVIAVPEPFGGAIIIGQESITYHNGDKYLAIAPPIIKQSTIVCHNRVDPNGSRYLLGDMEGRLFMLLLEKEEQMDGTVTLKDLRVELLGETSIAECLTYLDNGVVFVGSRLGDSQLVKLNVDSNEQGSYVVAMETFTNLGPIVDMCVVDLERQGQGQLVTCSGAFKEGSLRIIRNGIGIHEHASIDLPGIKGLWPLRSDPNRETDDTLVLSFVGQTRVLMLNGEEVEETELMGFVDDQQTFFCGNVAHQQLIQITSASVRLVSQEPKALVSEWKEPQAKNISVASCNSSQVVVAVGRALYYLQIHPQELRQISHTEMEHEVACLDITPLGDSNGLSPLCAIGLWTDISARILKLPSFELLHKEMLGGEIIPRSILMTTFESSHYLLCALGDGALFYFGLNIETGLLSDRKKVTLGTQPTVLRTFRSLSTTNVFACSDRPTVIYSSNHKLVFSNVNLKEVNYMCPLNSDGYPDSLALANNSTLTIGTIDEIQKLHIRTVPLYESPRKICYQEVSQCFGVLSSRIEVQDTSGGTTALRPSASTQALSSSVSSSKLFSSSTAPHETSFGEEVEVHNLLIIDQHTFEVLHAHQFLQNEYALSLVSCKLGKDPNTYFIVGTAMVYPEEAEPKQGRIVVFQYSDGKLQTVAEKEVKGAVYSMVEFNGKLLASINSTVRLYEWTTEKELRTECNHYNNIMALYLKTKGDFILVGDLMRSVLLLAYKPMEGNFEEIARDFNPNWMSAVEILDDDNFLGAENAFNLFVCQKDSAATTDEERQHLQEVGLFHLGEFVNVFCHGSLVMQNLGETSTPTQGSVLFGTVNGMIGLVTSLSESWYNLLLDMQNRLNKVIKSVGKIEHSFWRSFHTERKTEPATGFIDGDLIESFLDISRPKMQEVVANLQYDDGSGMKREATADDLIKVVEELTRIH

Biological target: HA-tagged PRMT5 (UniProt O14744)
Experiment: affinity purification with mass spectrometry; lysate of HeLa cells stably expressing HA-PRMT5 on anti-HA affinity column; washed with BC500 buffer (50 mM Tris, 2 mM EDTA, 500 mM KCl, 10% glycerol); eluted with HA peptide; SDS-PAGE, silver stain, LC-MS/MS

- binding: binds
Molecule: Snail, endogenous (from UniProt O95863 1-264)

- binding: binds
B1: OGT, endogenous (protein, UniProt O15294 1-1046)
chain: MASSVGNVADSTEPTKRMLSFQGLAELAHREYQAGDFEAAERHCMQLWRQEPDNTGVLLLLSSIHFQCRRLDRSAHFSTLAIKQNPLLAEAYSNLGNVYKERGQLQEAIEHYRHALRLKPDFIDGYINLAAALVAAGDMEGAVQAYVSALQYNPDLYCVRSDLGNLLKALGRLEEAKACYLKAIETQPNFAVAWSNLGCVFNAQGEIWLAIHHFEKAVTLDPNFLDAYINLGNVLKEARIFDRAVAAYLRALSLSPNHAVVHGNLACVYYEQGLIDLAIDTYRRAIELQPHFPDAYCNLANALKEKGSVAEAEDCYNTALRLCPTHADSLNNLANIKREQGNIEEAVRLYRKALEVFPEFAAAHSNLASVLQQQGKLQEALMHYKEAIRISPTFADAYSNMGNTLKEMQDVQGALQCYTRAIQINPAFADAHSNLASIHKDSGNIPEAIASYRTALKLKPDFPDAYCNLAHCLQIVCDWTDYDERMKKLVSIVADQLEKNRLPSVHPHHSMLYPLSHGFRKAIAERHGNLCLDKINVLHKPPYEHPKDLKLSDGRLRVGYVSSDFGNHPTSHLMQSIPGMHNPDKFEVFCYALSPDDGTNFRVKVMAEANHFIDLSQIPCNGKAADRIHQDGIHILVNMNGYTKGARNELFALRPAPIQAMWLGYPGTSGALFMDYIITDQETSPAEVAEQYSEKLAYMPHTFFIGDHANMFPHLKKKAVIDFKSNGHIYDNRIVLNGIDLKAFLDSLPDVKIVKMKCPDGGDNADSSNTALNMPVIPMNTIAEAVIEMINRGQIQITINGFSISNGLATTQINNKAATGEEVPRTIIVTTRSQYGLPEDAIVYCNFNQLYKIDPSTLQMWANILKRVPNSVLWLLRFPAVGEPNIQQYAQNMGLPQNRIIFSPVAPKEEHVRRGQLADVCLDTPLCNGHTTGMDVLWAGTPMVTMPGETLASRVAASQLTCLGCLELIAKNRQEYEDIAVKLGTDLEYLKKVRGKVWKQRISSPLFNTKQYTMELERLYLQMWEHYAAGNKPDHMIKPVEVTESA

Continued, molecule first:

Molecule: HDAC1, endogenous (from UniProt Q13547 1-482)
- binding: binds

Molecule: GATAD2B, endogenous (from UniProt Q8WXI9 1-593)
- binding: binds

Molecule: RbAp48, endogenous (from UniProt Q09028 1-425)
- binding: binds

Molecule: DDB1, endogenous (from UniProt Q16531 1-1140)
- binding: binds

No constants are given. Whether binding was seen depends on the method and setting. In cells and extracts the contact can be indirect. These calls come from enrichment with a bait or labelling near it, and not all partners need be listed. One block for each molecule: values may come before it.
